# Test results taken from PubChem BioAssay (EPA / NIEHS).
# Sequences of proteins named here, by UniProt entry; tags and fusion partners are left off.
# UniProt P10826, whole entry, looked up: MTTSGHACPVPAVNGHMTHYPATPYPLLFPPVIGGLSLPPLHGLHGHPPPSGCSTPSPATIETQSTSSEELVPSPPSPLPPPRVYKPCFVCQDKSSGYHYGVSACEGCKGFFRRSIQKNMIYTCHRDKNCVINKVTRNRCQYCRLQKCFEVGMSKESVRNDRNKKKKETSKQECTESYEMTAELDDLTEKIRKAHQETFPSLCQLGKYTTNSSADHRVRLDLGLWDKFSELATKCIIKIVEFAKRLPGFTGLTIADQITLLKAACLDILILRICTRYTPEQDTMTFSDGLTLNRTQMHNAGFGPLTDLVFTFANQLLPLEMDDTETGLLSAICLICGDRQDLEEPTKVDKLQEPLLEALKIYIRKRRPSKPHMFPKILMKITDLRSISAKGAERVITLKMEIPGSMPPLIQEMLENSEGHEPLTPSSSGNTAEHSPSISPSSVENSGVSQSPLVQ
# Several values for one entry are separate records, joined by “and”; a condition that tells them apart may be missing. Equal entries are not always repeated. The shares of active, inactive and inconclusive entries below differ from those in the screen. Potencies of inconclusive entries are doubtful fits and often do not repeat. Activity calls are given as the source filed them. The calls were made as follows: active = hit-call score of the fitted dose curve at least 0.9, where 1 is the maximum; inconclusive = response in the unintended direction; inactive = score below 0.9.
# Molecular target: human Retinoic Acid Receptor beta (RARb), RARB (gene 5915) (UniProt P10826)
# Test: ATG_RARb_TRANS: Attagene TRANS-FACTORIAL HepG2 Assay for human Retinoic Acid Receptor beta (AID 2283004)
# Experimental: ATG_TRANS is a cell-based, multiplexed-readout assay that uses HepG2, a human liver cell line, with measurements taken at 24 hours after chemical dosing in a 24-well plate.ATG_RARb_TRANS is one of 30 assay component(s) measured or calculated from the ATG_TRANS assay. It is designed to make measurements of mRNA induction, a form of inducible reporter, as detected with fluorescence intensity signals by Reverse transcription polymerase chain reaction (RT-PCR) and Capillary electrophoresis technology.Data from the assay component ATG_RARb_TRANS was analyzed into 1 assay endpoint. This assay endpoint, ATG_RARb_TRANS, was analyzed in the positive analysis fitting direction relative to DMSO as the negative control and baseline of activity. Using a type of inducible reporter, measures of mRNA for gain-of-signal activity can be used to understand the reporter gene at the transcription factor-level as they relate to the gene RARB. Furthermore, this assay endpoint can be referred to as a primary readout, because this assay has produced multiple assay endpoints where this one serves a reporter gene function. To generalize the intended target to other relatable targets, this assay endpoint is annotated to the nuclear receptor intended target family, where the subfamily is non-steroidal.
# Human liver HepG2 cells are transiently transfected with multiple reporter transcription units (MRTUs) in 6-well plates using FuGene 6 reagent (Roche; 3 ml FuGene/1 mg DNA). The MRTU constructs are regulated by a cis-regulating element (promoter). […] A major difference between the CIS and TRANS system is that in CIS activities of endogenous TFs are measured, whereas the TRANS assay evaluates changes in activities of exogenous, chimeric NR-Gal4 proteins. […] At the end of 24 hour incubation, total RNA was isolated using TriZol reagent (Invitrogen). The isolated RNA is then reverse-transcribed using oligo(dT) primer and Mo-MLV reverse transcriptase (Invitrogen) with DNAse I (Ambion) treatment for 30 min. The one-tenth of the produced cDNA was amplified by PCR using Taq DNA polymerase (Invitrogen) and two reporter sequence-specific primers. The PCR products were fluorescently labeled by primer extension with 6-arboxyfluorescein (6-FAM) 5'-labeled reporter sequence-specific primer (2 min at 95 C, 20 s at 68 C and 10 min at 72 C) and these products were digested with 5U of HpaI (New England Biolabs) for 2h at 37 C. The fragments were purified using Qiaquick PCR columns (Qiagen), analyzed on an ABI 3130xL genetic analyzer (Applied Biosystems) with peak positions identified by using a set of X-rhodamine (ROX)-labeled MapMarker1000 molecular weight standards (BioVentures). The raw capillary electrophoresis data was processed using Attagraph software (Attagene).
SMILES,outcome,AC50
Nc1ccc2ccccc2c1,inactive,–
NC(=O)c1ccc(N)nc1,inactive,–
CCOP(=S)(OCC)SCS(=O)(=O)CC,–,inconclusive: 100 µM
COc1ccc(O)c(C(C)(C)C)c1,inactive,–
CCCCCCCCSC(=O)Oc1cc(Cl)nnc1-c1ccccc1,–,inconclusive: 42.8 µM
CC(C)(C)c1cc([N+](=O)[O-])cc(C(C)(C)C)c1O,inactive,–
COc1nc(C)nc(NC(=O)NS(=O)(=O)c2ccccc2Cl)n1,inactive,inconclusive: 0.142 µM
COC(=O)C(C)Oc1ccc(Oc2ccc(Cl)cc2Cl)cc1 (stereo not given),inactive,inconclusive: 0.00721 µM
C=C(C)C(=O)[O][Sn]([CH2]CCC)([CH2]CCC)[CH2]CCC,–,inconclusive: 1.24 µM
CN(C)C(=S)SSC(=S)N(C)C,inactive,–

SMILES,outcome,AC50
Oc1cccc(-c2ccccc2)c1,inactive,–
O=C1C2(Cl)C3(Cl)C4(Cl)C(Cl)(Cl)C5(Cl)C3(Cl)C1(Cl)C5(Cl)C24Cl (stereo not given),inactive,inconclusive: 3.58 µM and inconclusive: 10.7 µM
CCCCCCCCCCCCCCC(Br)C(=O)O (stereo not given),–,inconclusive: 147 µM
O=[N+]([O-])c1ccc(Cl)c(Cl)c1,–,inconclusive: 100 µM
CC(=O)[O][Hg][c]1ccccc1,–,inconclusive: 11.1 µM
[As]#[In],inactive,–
COc1cccc(C(=O)NN(C(=O)c2cc(C)cc(C)c2)C(C)(C)C)c1C,inactive,–
Oc1ccc2ccc3cccc4ccc1c2c34,inactive,–
c1ccc2sc(SNC3CCCCC3)nc2c1,–,inconclusive: 5.32 µM
Cc1ccccc1OP(=O)(Oc1ccccc1)Oc1ccccc1,–,inconclusive: 5.35 µM
Oc1ccc(Cl)cc1Cl,–,inconclusive: 2.64 µM
O=[N+]([O-])c1cc(C(F)(F)F)c(Cl)c([N+](=O)[O-])c1Nc1ncc(C(F)(F)F)cc1Cl,inactive,inconclusive: 11.1 µM
COP(=S)(OC)Oc1ccc(Sc2ccc(OP(=S)(OC)OC)cc2)cc1,–,inconclusive: 13.2 µM
CCc1nn(C)c(C(=O)NCc2ccc(C(C)(C)C)cc2)c1Cl,inactive,–
CN(C)CCO,inactive,inconclusive: 0.0113 µM

# Single values from above.
# AC50 with Cc1ccccc1OP(=O)(Oc1ccccc1)Oc1ccccc1 reads inconclusive: 5.35 µM
# outcome with O=C1C2(Cl)C3(Cl)C4(Cl)C(Cl)(Cl)C5(Cl)C3(Cl)C1(Cl)C5(Cl)C24Cl (stereo not given) reads inactive
